In the supplement of paper PMC4807443:
Structures can show the parent of a compound that is named as a salt. The list shows a part of the results. The numbers are fractions of the control, whatever unit the source prints. Most entries show no effect beyond the scatter of the controls.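 MIN6, a mouse insulinoma beta-cell line, stably carries a lentiviral reporter where Pdx1 and Ins1 promoters each drive a nuclear fluorescent protein; Hoechst staining and automated imaging counted cells. Drugs were candidate hits if Ins1 promoter readout exceeded two median absolute deviations from DMSO controls while Pdx1 activity stayed near normal.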

system: MIN6; assay: % Pdx1+ Ins1+ (double-positive, mature) cells relative to DMSO control (fold of DMSO control); higher = more mature Ins1 promoter-active cells; details: 8.5 µM; 48 h; glucose 5 mM

Row | SMILES | % Pdx1+ Ins1+
1 | CNCCC(Oc1ccc(C(F)(F)F)cc1)c1ccccc1 (stereo not drawn) [Fluoxetine hydrochloride] | 0.847
2 | Cc1nc2n(c(=O)c1CCN1CCC(c3noc4cc(F)ccc34)CC1)CCCC2 [Risperidone] | 0.785
3 | OCc1cc(C(O)CNCCCCCCOCCCCc2ccccc2)ccc1O (stereo not drawn) [Salmeterol] | 0.988
4 | CC(=O)[C@H]1CC[C@H]2[C@@H]3C[C@H](C)C4=CC(=O)CC[C@]4(C)[C@H]3[C@@H](O)C[C@]12C [Medrysone] | 0.947
5 | CCCCNC(=O)NS(=O)(=O)c1ccc(C)cc1 [Tolbutamide] | 1.02
6 | O=C(O)c1cc(-c2ccc(F)cc2F)ccc1O [Diflunisal] | 1.01
7 | Cn1c(-c2ccc3c(c2)OCO3)cc(=O)c2ccccc21 [Graveoline] | 0.93
8 | CCn1cc(C(=O)O)c(=O)c2cnc(N3CCCC3)nc21 [Piromidic acid] | 1.08
9 | COc1ccc2cc([C@@H](C)C(=O)O)ccc2c1 [(R) -Naproxen sodium salt] | 0.885
10 | Nc1nc(=O)c2c([nH]1)NC[C@@H](CNc1ccc(C(=O)N[C@@H](CCC(=O)O)C(=O)O)cc1)N2C=O [Folinic acid calcium salt] | 0.825
11 | CC(C)NCC(O)COc1cccc2ccccc12 (stereo not drawn) [Propranolol hydrochloride] | 1.02
12 | CCCCC(CC)CNC(=N)NC(=N)NCCCCCCNC(=N)NC(=N)NCC(CC)CCCC (stereo not drawn) [Alexidine dihydrochloride] | 0
13 | COC(=O)[C@@H]1[C@H]2C[C@H]3c4[nH]c5ccccc5c4CCN3C[C@@H]2CC[C@@H]1O [Yohimbine hydrochloride] | 0.783
14 | CC1(C)NC(=O)N(c2ccc([N+](=O)[O-])c(C(F)(F)F)c2)C1=O [Nilutamide] | 0.863
15 | CCC1=C(C)CN(C(=O)NCCc2ccc(S(=O)(=O)NC(=O)N[C@H]3CC[C@H](C)CC3)cc2)C1=O [Glimepiride] | 1.02
16 | CCS(=O)(=O)CCn1c([N+](=O)[O-])cnc1C [Tinidazole] | 0.929
17 | CCCCOc1cc(C(=O)NCCN(CC)CC)c2ccccc2n1 [Dibucaine] | 1.15
18 | COc1ccc2cc1Oc1ccc(cc1)C[C@H]1c3cc(c(OC)cc3CCN1C)Oc1c(OC)c(OC)cc3c1[C@H](C2)N(C)CC3 [Tetrandrine] | 0.254
19 | C[C@]12CC[C@@H]3c4ccc(O)cc4CC[C@H]3[C@@H]1CCC2=O [Estrone] | 0.994
20 | CN(C)[C@@H]1C(O)=C(C(N)=O)C(=O)[C@@]2(O)C(O)=C3C(=O)c4c(O)ccc(Cl)c4[C@@](C)(O)[C@H]3C[C@@H]12 [Chlortetracycline hydrochloride] | 0.992
21 | CC(=O)N(CC(C)C(=O)O)c1c(I)cc(I)c(N)c1I (stereo not drawn) [Iocetamic acid] | 0.859
22 | CNCCC(Oc1ccccc1OC)c1ccccc1 (stereo not drawn) [Nisoxetine hydrochloride] | 0.872
23 | O=C(O)CCC(=O)Nc1ccc(S(=O)(=O)Nc2nccs2)cc1 [Succinylsulfathiazole] | 0.853
24 | COc1cnc(NS(=O)(=O)c2ccc(N)cc2)nc1 [Sulfameter] | 0.977
25 | Cc1cccc(CN2CCN(C(c3ccccc3)c3ccc(Cl)cc3)CC2)c1 (stereo not drawn) [Meclozine dihydrochloride] | 0.857

A different layout for part of the listing above:
Row,SMILES,% Pdx1+ Ins1+
1,CNCCC(Oc1ccc(C(F)(F)F)cc1)c1ccccc1 (stereo not drawn) [Fluoxetine hydrochloride],0.847
2,Cc1nc2n(c(=O)c1CCN1CCC(c3noc4cc(F)ccc34)CC1)CCCC2 [Risperidone],0.785
3,OCc1cc(C(O)CNCCCCCCOCCCCc2ccccc2)ccc1O (stereo not drawn) [Salmeterol],0.988
4,CC(=O)[C@H]1CC[C@H]2[C@@H]3C[C@H](C)C4=CC(=O)CC[C@]4(C)[C@H]3[C@@H](O)C[C@]12C [Medrysone],0.947
5,CCCCNC(=O)NS(=O)(=O)c1ccc(C)cc1 [Tolbutamide],1.02
6,O=C(O)c1cc(-c2ccc(F)cc2F)ccc1O [Diflunisal],1.01
7,Cn1c(-c2ccc3c(c2)OCO3)cc(=O)c2ccccc21 [Graveoline],0.93
8,CCn1cc(C(=O)O)c(=O)c2cnc(N3CCCC3)nc21 [Piromidic acid],1.08
9,COc1ccc2cc([C@@H](C)C(=O)O)ccc2c1 [(R) -Naproxen sodium salt],0.885
10,Nc1nc(=O)c2c([nH]1)NC[C@@H](CNc1ccc(C(=O)N[C@@H](CCC(=O)O)C(=O)O)cc1)N2C=O [Folinic acid calcium salt],0.825
11,CC(C)NCC(O)COc1cccc2ccccc12 (stereo not drawn) [Propranolol hydrochloride],1.02
12,CCCCC(CC)CNC(=N)NC(=N)NCCCCCCNC(=N)NC(=N)NCC(CC)CCCC (stereo not drawn) [Alexidine dihydrochloride],0
13,COC(=O)[C@@H]1[C@H]2C[C@H]3c4[nH]c5ccccc5c4CCN3C[C@@H]2CC[C@@H]1O [Yohimbine hydrochloride],0.783
14,CC1(C)NC(=O)N(c2ccc([N+](=O)[O-])c(C(F)(F)F)c2)C1=O [Nilutamide],0.863
15,CCC1=C(C)CN(C(=O)NCCc2ccc(S(=O)(=O)NC(=O)N[C@H]3CC[C@H](C)CC3)cc2)C1=O [Glimepiride],1.02
16,CCS(=O)(=O)CCn1c([N+](=O)[O-])cnc1C [Tinidazole],0.929
17,CCCCOc1cc(C(=O)NCCN(CC)CC)c2ccccc2n1 [Dibucaine],1.15
18,COc1ccc2cc1Oc1ccc(cc1)C[C@H]1c3cc(c(OC)cc3CCN1C)Oc1c(OC)c(OC)cc3c1[C@H](C2)N(C)CC3 [Tetrandrine],0.254
19,C[C@]12CC[C@@H]3c4ccc(O)cc4CC[C@H]3[C@@H]1CCC2=O [Estrone],0.994
20,CN(C)[C@@H]1C(O)=C(C(N)=O)C(=O)[C@@]2(O)C(O)=C3C(=O)c4c(O)ccc(Cl)c4[C@@](C)(O)[C@H]3C[C@@H]12 [Chlortetracycline hydrochloride],0.992
21,CC(=O)N(CC(C)C(=O)O)c1c(I)cc(I)c(N)c1I (stereo not drawn) [Iocetamic acid],0.859
22,CNCCC(Oc1ccccc1OC)c1ccccc1 (stereo not drawn) [Nisoxetine hydrochloride],0.872

(listing goes on)

Row | SMILES | % Pdx1+ Ins1+
26 | CCOC(=O)C1=C[C@]2(CC)CCCN3CCc4c(n1c1ccccc41)[C@@H]32 [Vinpocetine] | 1.06
27 | C=C1C[C@]23C[C@@]1(O)CC[C@H]2[C@@]12C=C[C@H](O)[C@@](C)(C(=O)O1)[C@H]2[C@@H]3C(=O)O [Gibberellic acid] | 0.967
28 | c1ccc2[nH]c(-c3cscn3)nc2c1 [Tiabendazole] | 1
29 | CN1[C@@H](CC(=O)c2ccccc2)CCC[C@H]1C[C@H](O)c1ccccc1 [Lobeline alpha (-) hydrochoride] | 0.907
30 | CC1CS(=O)(=O)CCN1/N=C/c1ccc([N+](=O)[O-])o1 (stereo not drawn) [Nifurtimox] | 1.06
31 | CO/N=C(\C(=O)N[C@@H]1C(=O)N2C(C(=O)O)=C(C[N+]3(C)CCCC3)CS[C@H]12)c1csc(N)n1 [Cefepime hydrochloride] | 0.81
32 | CCOC(=O)[C@H](CCc1ccccc1)N[C@@H](C)C(=O)N1CCC[C@H]1C(=O)O [Enalapril maleate] | 1.02
33 | CC1=C(CC(=O)O)c2cc(F)ccc2/C1=C\c1ccc([S+](C)[O-])cc1 (stereo not drawn) [Sulindac] | 1.17
34 | CCc1cccc2c3c([nH]c12)C(CC)(CC(=O)O)OCC3 (stereo not drawn) [Etodolac] | 1.1
35 | Cc1noc(NS(=O)(=O)c2ccc(N)cc2)c1C [Sulfisoxazole] | 0.972
36 | CC[N+](CC)(CC)CCC(O)(c1ccccc1)C1CCCCC1 (stereo not drawn) [Tridihexethyl chloride] | 0.858
37 | CN(C)CCCO[C@@H]1[C@H]2OC(C)(C)O[C@H]2O[C@@H]1[C@H](O)CO [Amiprilose hydrochloride] | 0.99
38 | C[C@]12CC[C@@H]3c4ccc(O)cc4CC[C@H]3[C@@H]1C[C@@H](O)[C@@H]2O [Estriol] | 0.854
39 | OCCOCCN1CCN(C(c2ccccc2)c2ccc(Cl)cc2)CC1 (stereo not drawn) [Hydroxyzine dihydrochloride] | 0.998
40 | C=CC1=C(C(=O)O)N2C(=O)[C@@H](NC(=O)/C(=N\OCC(=O)O)c3csc(N)n3)[C@H]2SC1 [Cefixime] | 1.02
41 | Cc1ccccc1N1C(=O)c2cc(S(N)(=O)=O)c(Cl)cc2NC1C (stereo not drawn) [Metolazone] | 1.07
42 | COc1ccc2[nH]c([S+]([O-])Cc3ncc(C)c(OC)c3C)nc2c1 (stereo not drawn) [Omeprazole] | 0.917
43 | CC(=O)Nc1ccc(O)cc1 [Acetaminophen] | 0.966
44 | CN(C)CCOC(=O)COc1ccc(Cl)cc1 [Meclofenoxate hydrochloride] | 0.812
45 | N=C(N)N/N=C/c1c(Cl)cccc1Cl [Guanabenz acetate] | 0.689
46 | OC(CCN1CCCCC1)(c1ccccc1)C1CCCCC1 (stereo not drawn) [Trihexyphenidyl-D,L Hydrochloride] | 0.894
47 | CCC(=O)OCC(=O)[C@@]1(OC(=O)CC)[C@H](C)C[C@H]2[C@H]3[C@H]([C@@H](O)C[C@@]21C)[C@@]1(C)C=CC(=O)C=C1C[C@H]3Cl [Alclometasone dipropionate] | 0.865
48 | c1ccc2c(c1)CCCc1cc(NCCN3CCOCC3)nnc1-2 | 0.907
49 | Nc1cc(-c2ccncc2)c[nH]c1=O [Amrinone] | 0.809
50 | CN(C)[C@@H]1C(O)=C(C(N)=O)C(=O)[C@@]2(O)C(O)=C3C(=O)c4c(O)ccc(Cl)c4[C@@H](O)[C@H]3C[C@@H]12 [Demeclocycline hydrochloride] | 0.982

Row | SMILES | % Pdx1+ Ins1+
51 | Cn1c([N+](=O)[O-])cnc1COC(N)=O [Ronidazole] | 1.09
52 | N[C@@H](C(=O)N[C@@H]1C(=O)N2C(C(=O)O)=C(Cl)CS[C@H]12)c1ccccc1 [Cefaclor] | 0.94
53 | CC(Oc1ccccc1)C(=O)N[C@@H]1C(=O)N2[C@@H]1SC(C)(C)[C@@H]2C(=O)O (stereo partly drawn) [Phenethicillin potassium salt] | 0.953
54 | CN1CCN(C2=Nc3cc(Cl)ccc3Nc3ccccc32)CC1 [Clozapine] | 0.941
55 | C[C@@H]1NC(=O)NC1=O [Methylhydantoin-5-(L)] | 0.862
56 | NC12CC3CC(CC(C3)C1)C2 [Adamantamine fumarate] | 1.05
57 | Cc1cc(=O)n(-c2ccccc2)n1C [Antipyrine] | 1.11
58 | Clc1ccc(COC(Cn2ccnc2)c2ccc(Cl)cc2Cl)c(Cl)c1 (stereo not drawn) [Miconazole] | 1.08
59 | CC(C)(C(=O)c1cccnc1)c1cccnc1 [Metyrapone] | 0.941
60 | O=c1cc(-c2ccc(O)c(O)c2)oc2cc(O)cc(O)c12 [Luteolin] | 0.498
61 | CC(C)/N=c1\cc2n(-c3ccc(Cl)cc3)c3ccccc3nc-2cc1Nc1ccc(Cl)cc1 [Clofazimine] | 0.783
62 | CCN[C@H]1C[C@H](C)S(=O)(=O)c2sc(S(N)(=O)=O)cc21 [Dorzolamide hydrochloride] | 0.914
63 | CC(=O)N(O)CCCCCNC(=O)CCC(=O)N(O)CCCCCNC(=O)CCC(=O)N(O)CCCCCN [Deferoxamine mesylate] | 0.676
64 | CC(C)NC[C@H](O)COc1ccc(CC(N)=O)cc1 [(S)-(-)-Atenolol] | 1
65 | CO[C@@]1(NC(=O)CSCC#N)C(=O)N2C(C(=O)O)=C(CSc3nnnn3C)CS[C@@H]21 [Cefmetazole sodium salt] | 0.721
66 | C[C@@H]1[C@H](O)[C@@H](C)/C=C/C=C/C=C/C=C/C=C/C=C/C=C/[C@H](O[C@@H]2O[C@H](C)[C@@H](O)[C@H](N)[C@@H]2O)C[C@@H]2O[C@](O)(C[C@@H](O)C[C@@H](O)[C@H](O)CC[C@@H](O)C[C@@H](O)CC(=O)O[C@H]1C)C[C@H](O)[C@H]2C(=O)O [Amphotericin B] | 1.08
67 | CCC(NC(C)C)C(O)c1ccc(O)c(O)c1 (stereo not drawn) [Isoetharine mesylate salt] | 0.9
68 | CCC(Cc1c(I)cc(I)c(N)c1I)C(=O)O (stereo not drawn) [Iopanoic acid] | 0.903
69 | CN1CCc2cccc3c2[C@H]1Cc1ccc(O)c(O)c1-3 [R(-) Apomorphine hydrochloride hemihydrate] | 0.848
70 | CC[C@@H](CC[C@@H](C)[C@H]1CC[C@H]2[C@@H]3CCC4C[C@@H](O)CC[C@]4(C)[C@H]3CC[C@]12C)C(C)C (stereo partly drawn) [Beta-sistosterol] | 0.972
71 | COc1cc(OC)c(C(=O)CCCN2CCCC2)c(OC)c1 [Buflomedil hydrochloride] | 0.95
72 | COc1ccc2c(c1)N(C[C@H](C)CN(C)C)c1ccccc1S2 [Methotrimeprazine maleat salt] | 1.02
73 | CCCN(CCC)C(=O)C(CCC(=O)O)NC(=O)c1ccccc1 (stereo not drawn) [Proglumide] | 1.08
